## Percent effect of library compounds

Amino acid sequences for entries named in this document (tags omitted). Residues count along the entry.
UniProt P9WFT3, whole entry: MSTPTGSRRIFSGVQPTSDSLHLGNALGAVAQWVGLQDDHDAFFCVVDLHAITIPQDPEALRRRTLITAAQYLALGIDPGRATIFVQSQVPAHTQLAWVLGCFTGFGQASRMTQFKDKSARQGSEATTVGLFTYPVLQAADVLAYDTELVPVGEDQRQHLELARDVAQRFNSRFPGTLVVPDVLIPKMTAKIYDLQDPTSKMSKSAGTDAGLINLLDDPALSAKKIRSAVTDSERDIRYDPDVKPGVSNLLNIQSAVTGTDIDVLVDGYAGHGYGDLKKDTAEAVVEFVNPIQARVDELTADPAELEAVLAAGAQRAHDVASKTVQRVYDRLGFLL
UniProt Q8IDJ8, 1-583: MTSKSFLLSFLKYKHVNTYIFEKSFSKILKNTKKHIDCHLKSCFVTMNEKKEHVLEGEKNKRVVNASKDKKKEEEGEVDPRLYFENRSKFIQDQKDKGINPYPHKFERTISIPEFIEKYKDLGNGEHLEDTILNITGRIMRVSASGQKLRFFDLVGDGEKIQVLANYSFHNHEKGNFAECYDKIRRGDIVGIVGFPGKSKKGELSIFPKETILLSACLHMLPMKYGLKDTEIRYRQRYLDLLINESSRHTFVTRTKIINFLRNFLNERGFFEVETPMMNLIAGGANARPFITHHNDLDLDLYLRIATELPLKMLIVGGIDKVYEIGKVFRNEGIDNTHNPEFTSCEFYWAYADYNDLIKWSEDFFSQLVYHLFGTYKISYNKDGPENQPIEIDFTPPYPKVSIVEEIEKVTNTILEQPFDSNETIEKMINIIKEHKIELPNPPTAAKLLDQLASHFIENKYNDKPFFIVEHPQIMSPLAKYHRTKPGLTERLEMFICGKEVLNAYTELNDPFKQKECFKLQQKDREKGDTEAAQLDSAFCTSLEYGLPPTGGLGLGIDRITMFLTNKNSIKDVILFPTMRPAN
UniProt P9WPC5, whole entry: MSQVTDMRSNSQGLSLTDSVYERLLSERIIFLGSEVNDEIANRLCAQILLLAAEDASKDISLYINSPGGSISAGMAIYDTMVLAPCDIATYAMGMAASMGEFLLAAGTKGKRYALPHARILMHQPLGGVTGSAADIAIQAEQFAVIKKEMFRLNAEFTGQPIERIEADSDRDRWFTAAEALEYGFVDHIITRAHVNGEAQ
UniProt P9WPC3, whole entry partner: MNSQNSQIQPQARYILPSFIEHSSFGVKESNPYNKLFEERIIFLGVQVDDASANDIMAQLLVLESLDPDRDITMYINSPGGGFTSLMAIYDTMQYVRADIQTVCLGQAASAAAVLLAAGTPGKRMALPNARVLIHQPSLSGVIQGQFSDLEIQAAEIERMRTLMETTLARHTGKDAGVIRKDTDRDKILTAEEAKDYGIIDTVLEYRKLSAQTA

The values are deposited in ChEMBL (CHEMBL3988442, “University of Dundee, Small-Polar-MMV Screening Library” (2021)).

MtTrpRS: 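Enzyme assay of tryptophanyl-tRNA synthetase; the read-out is not stated. Target: Tryptophan-tRNA ligase, Mycobacterium tuberculosis (UniProt P9WFT3). Tested at 10 µM. Higher most likely means stronger inhibition; the record gives no direction and few retests gave an IC50. About 65,000 compounds were tested under these conditions; 0.098% (about 64) showed 50% or more at least once.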
PfKRS1: 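Enzyme assay of the cytosolic lysyl-tRNA synthetase in 384-well plates, read by luminescence. Target: Lysine-tRNA ligase, Plasmodium falciparum 3D7 (UniProt Q8IDJ8). Compounds at 30 µM. Higher reads as stronger inhibition, judged from the few compounds that gave an IC50. About 69,000 compounds were tested under these conditions; 0.071% (about 49) showed 50% or more at least once.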
ClpP1P2: 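Protease assay of ClpP1P2, read by the AMC dye that it sets free. Target: ClpP1P2, Mycobacterium tuberculosis (UniProt P9WPC5 and UniProt P9WPC3). Compounds at 50 µM. Higher reads as stronger inhibition, judged from the few compounds that gave an IC50. Most other retested compounds had strongly negative values. Size under these conditions: about 69,000 compounds, about 10 of them at 50% or above in at least one test.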

Results are given as percent effect. The controls that fix the scale are not given in the record; negative values are as filed. Compounds were drawn at random from those tested, without regard to their results. A dash means the value is not listed here; it may have been measured.

SMILES	MtTrpRS	PfKRS1	ClpP1P2
O=C1OCCN1CCOc1nc(-c2ccccc2Cl)no1	-2.067	-1.727	-1.755
CC(=O)NCC1CCN(C(=O)c2csc(-c3ccc(C)cc3C)n2)CC1	-2.818	4.21	6.171
O=C(O)c1cn(CC2CCCN(c3nc4ccccc4s3)C2)nn1 (centres undefined)	1.067	-2.963	5.25
CN(Cc1noc2c1CCCC2)C(=O)C1Cc2ccccc2CN1C (centres undefined)	-6.368	3.822	-13.78
CN(C)C[C@@H]1C[C@@H]2CN(C(=O)c3ccoc3)CC[C@@H]2N1CC1CC1	0.9924	-6.178	5.399
CC(NC(=O)NCc1cccc(CN2CCCC2)c1)c1nccs1 (centres undefined)	1.652	4.318	-3.167
Cn1cc(CNCCC(=O)NCc2ccccc2)c(-c2cccnc2)n1	-6.399	3.809	-10.43
COc1cccc(C(CO)NC(=O)Cc2ccc(F)c(Br)c2)c1 (centres undefined)	-0.9338	2.966	-2.821
COCC(=O)N1CCC(C)(c2cc(O)[nH]n2)CC1	-0.7752	1.689	-23.56
CN1CCC(Cc2noc(CC3CC3)n2)CC1	0.07137	9.137	-8.071
Cn1cc(CN2CCCC3(COCCN(Cc4c[nH]nn4)C3)C2)cn1 (centres undefined)	1.465	1.298	11.59
CS(=O)(=O)c1nnc(NC(=O)CCc2cc(F)ccc2F)[nH]1	2.107	5.226	-0.1668
Cc1nc(C)n(CC2CCCCN2CCCN2CCCC2=O)n1 (centres undefined)	-1.644	-0.5448	12.53
Cc1cc(C(=O)N2CCc3c(ncnc3N3CCOCC3)C2)[nH]n1	5.695	2.579	-9.793
CCN(CC(=O)NC)C(=O)c1sc(Cc2ccccc2)nc1C	-1.891	-0.5081	-1.682
CC(O)CNC(=O)CCc1nc2ncccc2[nH]1 (centres undefined)	-0.4902	1.333	-5.026
c1cnc(N2CCCC(Cc3nccs3)C2)nc1 (centres undefined)	-0.9791	0.8171	2.498
C[C@H](NS(C)(=O)=O)C(=O)NCc1cc(-c2ccco2)n[nH]1	-	4.362	3.797
Cn1c(CN2CCN(CC3CCCO3)CC2)nc2ccccc21 (centres undefined)	-2.107	6.791	-18.75
CCCN1CCCC1Cn1nc(C)cc1C (centres undefined)	-6.344	0.1334	-25.72
CCn1ncc2c1C(COCC1CC1)CN(S(=O)(=O)N(C)C)C2 (centres undefined)	1.562	5.477	-6.799
CN(Cc1ccccc1)CC(O)Cn1cnc2c(cnn2C)c1=O (centres undefined)	-1.559	5.345	6.439
Cc1noc(CNC2CCCN(Cc3noc(C4CC4)n3)C2)n1 (centres undefined)	-7.025	0.6854	3.105
CN1Cc2cc(F)ccc2N(CC(C)(C)O)CCC1=O	-	4.785	16.51
CC(c1nc(C2CC2)no1)N1CCN(CCn2ccccc2=O)CC1 (centres undefined)	-2.794	-2.024	4.814
COc1ccc(C(CO)NC(=O)Nc2cccnc2)cc1 (centres undefined)	-5.186	-5.134	-8.254
CCn1cc2c(n1)CN(Cc1cnn(C)c1)CC2COCC1CC1 (centres undefined)	-0.2469	-3.576	2.12
COc1cc(N2CCC3(CC2)CC(N2CCOCC2)C3)ncn1	-2.668	6.241	-7.682
CCc1ncncc1C(=O)N1CCOC(c2nc(C)n[nH]2)C1 (centres undefined)	-1.462	5.71	1.36
Cc1nnc2n1CCN(C(=O)C1CCN(Cc3ccccc3)CC1)C2	-6.588	-0.2733	-9.695
COCC(=O)N1CCC2(CCC2NC(=O)c2ccn(C)c2)CC1 (centres undefined)	-6.502	2.136	-4.033
O=C(NC1CCCC1)c1n[nH]c2c1CNCC2	-5.093	5.415	-6.832
c1ccc(COC[C@@H]2CCC[C@]23CN(Cc2nccs2)CCO3)nc1	-1.72	-2.732	0.882
Cc1cn2c(n1)C(CNCC1=Cc3cc(Cl)ccc3OC1)CCC2 (centres undefined)	-7.407	3.935	5.582
Cc1cc(C)n(C2CN(CC(=O)NC3CCOCC3)C2)n1	-1.462	3.968	0.8358
COCCN1CC[C@@H]2CN(Cc3nccn3C)C[C@@H]2C1	-0.5348	11.6	3.588
Cc1noc(Cl)c1CCC(=O)N1CCC(Nc2cccnn2)CC1	-4.769	-0.439	-29.22
COCCN(Cc1cnn(C)c1)CC1CCOC1 (centres undefined)	-4.235	3.963	-14.58
CSc1nc2ccsc2c(=O)n1CC(=O)N(C)C1CCCCC1	-2.225	6.389	-15.07
CCn1cc(CN2CCCN(C(=O)Cc3ccc(C)nc3)CC2)cn1	1.016	5.816	-0.0506
Cc1noc(C)c1CN(C)C(=O)c1ccc(O)nc1	-5.952	0.5159	-8.604
CC(C)N(C)S(=O)(=O)NCc1cccnc1N(C)C	0.5435	4.742	7.478
Cn1cc(-c2csc(N3CCN(C(=O)OC(C)(C)C)CC3)n2)cn1	-7.393	7.188	-2.499
O=C(CCc1cccs1)N1CCCCC1Cn1cccn1 (centres undefined)	5.238	5.934	3.924
NCC1Cc2cc(Cl)cc(-c3cncc(C(=O)N4CCCCC4)n3)c2O1 (centres undefined)	-1.21	6.357	4.721
CC(c1ncc(C(C)(C)C)o1)N1CCN(Cc2ccncc2)CC1 (centres undefined)	0.1142	-0.9027	-9.685
Cc1csc2c(N3CCC(NCCCc4ccncc4)CC3)ncnc12	7.374	2.057	-15.07
COc1cccc(-c2noc3c2CN(c2nc(C)ncc2C)CC3)c1	-1.351	0.2039	4.467
CC(C)(C)CC(=O)NCC1CCCS1 (centres undefined)	1.575	3.273	-9.188
CC(C)(C)C(=O)N1CCN(C(=O)Nc2cnn(CC(F)F)c2)CC1	-3.366	0.8579	5.617
COCCNC(=O)N1CCN(C(C)C(=O)NC(C)C)CC1 (centres undefined)	3.199	6.355	-7.19
COC(=O)[C@@H](NC(=O)c1coc(COc2cccc(F)c2)n1)C(C)C	-3.314	5.584	-4.811
CN1CCC(c2n[nH]cc2-c2ccnc(N)c2)C1 (centres undefined)	-4.561	0.9817	-19
O=S(=O)(c1cccs1)N1Cc2nc(COCC3CC3)oc2C1	-	1.552	-12.79
Cc1ccc(CN2CCc3[nH]nc(C(=O)N4CCNC(=O)C4)c3C2)s1	-3.128	5.485	5.267
CC(NC(=O)Cn1ccc(=O)n(C)c1=O)c1cc(F)ccc1F (centres undefined)	0.7382	-0.08039	-13.61
CC1CCCCN1Cc1nc(C2CC2)no1 (centres undefined)	0.5623	4.06	6.453
CC(C)(C)c1ncc(C(=O)N2CCN(C(=O)c3ccc[nH]3)CC2)c(O)n1	-6.457	9.505	3.802
CC(=O)NCCNC(=O)NCc1ccc(Br)cc1Cl	-1.026	0.4889	-9.965
CN1CCc2nc(C3CCCN(C(=O)CC4CCCCC4)C3)ncc2C1 (centres undefined)	-	4.017	11.89
Cc1nc(C(F)(F)F)nc(N2CCC(O)(C(=O)O)CC2)c1C	-0.6606	5.829	-3.088
Cc1cc(=O)n(CCNS(=O)(=O)c2ccccc2)cn1	-3.479	-1.133	-8.827
CC(C)Cc1cc(C(=O)NCCN2CCCS2(=O)=O)[nH]n1	2.288	1.734	-21.76
O=C(NCc1ccccc1)c1nc2c(o1)CN(C(=O)c1cccnc1)C2	-6.173	-0.418	-15.87
O=C(NC[C@]1(O)CN(Cc2ccccc2F)C[C@H]1O)c1cscn1	-	3.273	-2.443
NC(=O)c1cccc(CCNC(=O)N2Cc3ccccc3C2)c1	-9.35	1.137	-12.34
O=C(NCCC(O)c1cccs1)c1ccc(Br)o1 (centres undefined)	3.087	1.855	0.8512
O=C1NC2(CCc3ccccc31)CCN(Cc1cccnc1)C2 (centres undefined)	-1.382	-0.7398	-7.188
CN(Cc1ncc(-c2ccccc2)o1)CC1CCCN1c1cccnn1 (centres undefined)	-1.486	3.806	-12.75
CC(C)c1cc(CN2CCNCC2)no1	-	4.029	2.268
Cc1nc(C2CCCCN2S(C)(=O)=O)no1 (centres undefined)	-6.512	0.2861	-3.501
O=c1[nH]c2c(c(=O)n1C1CCCCC1)CCC2Nc1ccccc1 (centres undefined)	-1.608	24.36	-0.9476
COCC(C)NC(=O)CSc1ccc(F)c(Cl)c1 (centres undefined)	-4.832	-1.673	6.101
CCOCC1CN(CCOCc2ccccc2)Cc2c1cnn2C (centres undefined)	-0.5947	7.945	-2.704

Some entries from above, unchanged:

Result for COc1cccc(-c2noc3c2CN(c2nc(C)ncc2C)CC3)c1 was MtTrpRS: -1.351%; PfKRS1: 0.2039%; ClpP1P2: 4.467%.
Result for c1ccc(COC[C@@H]2CCC[C@]23CN(Cc2nccs2)CCO3)nc1 was MtTrpRS: -1.72%; PfKRS1: -2.732%; ClpP1P2: 0.882%.
Result for Cn1cc(CNCCC(=O)NCc2ccccc2)c(-c2cccnc2)n1 was MtTrpRS: -6.399%; PfKRS1: 3.809%; ClpP1P2: -10.43%.
Result for CC(C)(C)c1ncc(C(=O)N2CCN(C(=O)c3ccc[nH]3)CC2)c(O)n1 was MtTrpRS: -6.457%; PfKRS1: 9.505%; ClpP1P2: 3.802%.
Result for CN1CCc2nc(C3CCCN(C(=O)CC4CCCCC4)C3)ncc2C1 (centres undefined) was PfKRS1: 4.017%; ClpP1P2: 11.89%.
Result for CC(NC(=O)Cn1ccc(=O)n(C)c1=O)c1cc(F)ccc1F (centres undefined) was MtTrpRS: 0.7382%; PfKRS1: -0.08039%; ClpP1P2: -13.61%.
Result for CS(=O)(=O)c1nnc(NC(=O)CCc2cc(F)ccc2F)[nH]1 was MtTrpRS: 2.107%; PfKRS1: 5.226%; ClpP1P2: -0.1668%.
Result for CC(C)(C)CC(=O)NCC1CCCS1 (centres undefined) was MtTrpRS: 1.575%; PfKRS1: 3.273%; ClpP1P2: -9.188%.